Measurements reported in PubChem BioAssay AID1259405 (NCATS, 2018).

Screen: 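Silenced genes that increase secreted GFP made by CHO cells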 (primary screen)
Cells: Chinese hamster CHO-K1 ovary cells with stable secreted eGFP expression
Reagents: single siRNA against mouse genes, 0.8 pmol siRNA per well (2 µl of 400 nM stock)
Timing: 3 days
Read-out: 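Per-well intracellular GFP measured by laser scanning cytometry, plus viability from ATP luminescence, each relative to plate median of non-targeting control wells, in %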
Direction: GFP, % of control: higher = more GFP per well, higher productivity; viability (ATP), % of control: higher = more viable cells (more ATP)
Rule for the call: 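Called active when intracellular GFP, relative to negative control, is at or above 120%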
Shown is a random part of about 50,000 reagents. In the full data, about 4,000 (8%) were called active. 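Mouse siRNA library applied to hamster cells; one well for each siRNA.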 Unmarked entries are inactive. Reagents against one gene are numbered here.

Or5w10 #1 gave GFP, % of control 27.1; viability (ATP), % of control 23.4.
Knock-down of Or5w10 #2 gave: GFP, % of control 63.4; viability (ATP), % of control 61.3.
Or5w10 #3 showed GFP, % of control 77; viability (ATP), % of control 84.4.
Depletion of Mobp #1 gave: GFP, % of control 39.6; viability (ATP), % of control 43.9.
Mobp #2 showed GFP, % of control 79.6; viability (ATP), % of control 79.8.
Against Mobp #3, the entry reads GFP, % of control 79.6; viability (ATP), % of control 59.6.
Against Ltbp1 #1 the deposit lists GFP, % of control 75.3; viability (ATP), % of control 59.6.
With knock-down of Ltbp1 #2, the record shows GFP, % of control 114; viability (ATP), % of control 108.
With knock-down of Ltbp1 #3 the results were GFP, % of control 72.5; viability (ATP), % of control 69.1.
With knock-down of Jak3, the screen gave GFP, % of control 82.4; viability (ATP), % of control 61.5.
Silencing of Klra7 #1 resulted in: GFP, % of control 64.7; viability (ATP), % of control 65.1.
Klra7 #2 scored GFP, % of control 143 (active); viability (ATP), % of control 103.
Knock-down of Klra7 #3 resulted in: GFP, % of control 110; viability (ATP), % of control 81.2.
Cdkl2 showed GFP, % of control 52.8; viability (ATP), % of control 71.6.
Silencing of Slc10a2 #1 gave: GFP, % of control 70.3; viability (ATP), % of control 53.8.
Slc10a2 #2 scored GFP, % of control 55; viability (ATP), % of control 59.6.
For Slc10a2 #3 the deposit lists GFP, % of control 84.8; viability (ATP), % of control 82.7.
Knock-down of Bud13 #1 came out at: GFP, % of control 85.9; viability (ATP), % of control 88.4.
Bud13 #2 scored GFP, % of control 106; viability (ATP), % of control 65.8.
Bud13 #3 scored GFP, % of control 126 (active); viability (ATP), % of control 95.
For Sdad1 #1 the deposit lists GFP, % of control 97.5; viability (ATP), % of control 84.3.
Sdad1 #2 scored GFP, % of control 55.7; viability (ATP), % of control 60.1.
With knock-down of Sdad1 #3 the results were GFP, % of control 40; viability (ATP), % of control 65.2.
Zcchc9 #1 showed GFP, % of control 58.8; viability (ATP), % of control 33.1.
Against Zcchc9 #2, the values are GFP, % of control 18.4; viability (ATP), % of control 23.
Silencing of Zcchc9 #3 resulted in: GFP, % of control 82.5; viability (ATP), % of control 99.3.
For Cpsf4l #1 the deposit lists GFP, % of control 75.9; viability (ATP), % of control 99.6.
For Cpsf4l #2, the entry reads GFP, % of control 89.2; viability (ATP), % of control 32.5.
Cpsf4l #3 gave GFP, % of control 119; viability (ATP), % of control 127.
After knock-down of Pcdhga8 #1, the screen gave GFP, % of control 91.7; viability (ATP), % of control 72.5.
For Pcdhga8 #2, the values are GFP, % of control 51.2; viability (ATP), % of control 58.
With knock-down of Pcdhga8 #3, the record shows GFP, % of control 59.6; viability (ATP), % of control 72.8.
For Arhgef10l #1 the deposit lists GFP, % of control 82.9; viability (ATP), % of control 82.8.
Depletion of Arhgef10l #2 came out at: GFP, % of control 56.2; viability (ATP), % of control 39.7.
Knock-down of Arhgef10l #3 resulted in: GFP, % of control 82; viability (ATP), % of control 75.5.
Knock-down of Or1e26 #1 gave: GFP, % of control 61.2; viability (ATP), % of control 62.5.
Knock-down of Or1e26 #2 resulted in: GFP, % of control 204 (active); viability (ATP), % of control 39.4.
Or1e26 #3 scored GFP, % of control 64.1; viability (ATP), % of control 114.
For Or2n1 #1, the values are GFP, % of control 80.7; viability (ATP), % of control 72.
After knock-down of Or2n1 #2, the record shows GFP, % of control 33; viability (ATP), % of control 25.3.
With knock-down of Or2n1 #3, the screen gave GFP, % of control 50; viability (ATP), % of control 89.1.
Knock-down of Or13p5 #1 resulted in: GFP, % of control 107; viability (ATP), % of control 55.8.
For Or13p5 #2 the deposit lists GFP, % of control 96.4; viability (ATP), % of control 46.5.
For Or13p5 #3, the values are GFP, % of control 57.5; viability (ATP), % of control 58.3.
For Scap #1, the entry reads GFP, % of control 127 (active); viability (ATP), % of control 110.
Scap #2 gave GFP, % of control 28.9; viability (ATP), % of control 48.8.
Scap #3 scored GFP, % of control 53.2; viability (ATP), % of control 66.7.
Cox19 #1 showed GFP, % of control 56.8; viability (ATP), % of control 51.2.
Cox19 #2 gave GFP, % of control 92.9; viability (ATP), % of control 75.
Cox19 #3 gave GFP, % of control 48.2; viability (ATP), % of control 39.3.
Astl #1 scored GFP, % of control 105; viability (ATP), % of control 72.1.
Astl #2 scored GFP, % of control 69.6; viability (ATP), % of control 65.4.
After knock-down of Astl #3 the results were GFP, % of control 72.1; viability (ATP), % of control 87.6.

Called active, among the entries above:
Klra7 #2 — GFP, % of control: 143 (active); viability (ATP), % of control: 103
Bud13 #3 — GFP, % of control: 126 (active); viability (ATP), % of control: 95
Or1e26 #2 — GFP, % of control: 204 (active); viability (ATP), % of control: 39.4
Scap #1 — GFP, % of control: 127 (active); viability (ATP), % of control: 110
